# Percent effect of library compounds

The values are deposited in ChEMBL (CHEMBL3988442, “University of Dundee, Small-Polar-MMV Screening Library” (2021)).

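Assay of Toxoplasma gondii numbers, read through their beta-galactosidase reporter with a colour substrate. Compounds at 50 µM. The record gives no direction; the compounds picked for IC50 retests had high values, so higher reads as fewer parasites. Of about 18,000 compounds tested this way, about 170 (0.94%) reached 50% or more in at least one test.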

Values are the deposited “Percent Effect”, in %. How 0% and 100% were set is not recorded. Most values in the screen are low, and negative values occur. The compounds are a random part of those screened.

| # | Compound | Percent Effect |
|---|---|---|
| 1 | `CCCc1ccc(CN2CCC(NC(C)=O)C2)o1` (stereo not drawn) | 2.217% |
| 2 | `COCCN1CCCN(c2nccc(C)n2)CC1=O` | 6.538% |
| 3 | `COCCNCc1ccc(OC)c(OC)c1OC` | 9.453% |
| 4 | `NC(=O)C1CCN(C(=O)COC(=O)c2cccs2)CC1` | -11.5% |
| 5 | `O=c1ccc(F)cn1Cc1ccn(-c2ccccc2)n1` | -11.12% |
| 6 | `COCCNC(=O)C1CC(=O)N(c2ccccc2F)C1` (stereo not drawn) | 5.718% |
| 7 | `CC(C)CC(=O)N1CCNCC1` | 22.95% |
| 8 | `CC1(c2ccc(F)cc2)CNC(=O)O1` (stereo not drawn) | 6.02% |
| 9 | `O=S(=O)(NC1CC1)C1CCN(CCc2ccccn2)C1` (stereo not drawn) | 5.549% |
| 10 | `N#Cc1ncn(CC(=O)c2ccc3c(c2)CCO3)n1` | 42.86% |
| 11 | `CN(CCC#N)CC1CCN(CCO)CC1` | -6.076% |
| 12 | `O=C(NCCc1ccccc1F)C1CCNCC1` | -5.827% |
| 13 | `OCCN(CCO)Cc1cc(Br)cc2cccnc12` | -9.571% |
| 14 | `NC(=O)C1(O)CCN(Cc2nc(C3CCCC3)no2)C1` (stereo not drawn) | -5.906% |
| 15 | `CN1CCCC(N)c2ccccc21` (stereo not drawn) | -70.84% |
| 16 | `CC(=O)COC(=O)CNC(=O)c1ccc(Br)cc1` | 2.132% |
| 17 | `CSCCC(O)C(=O)NCC1(Cn2ccnc2)CC1` (stereo not drawn) | -0.2293% |
| 18 | `Cc1noc(CCCC(=O)Nc2cccnc2)n1` | 3.593% |
| 19 | `CCN(CCn1cccn1)C(=O)c1cc(CO)ccn1` | -3.375% |
| 20 | `Cn1cc(CN(CCC#N)CCN2CCOCC2)cn1` | -0.933% |
| 21 | `CSCCOC(=O)c1ccn(C(C)C)n1` | 16.72% |
| 22 | `CCN(CCOC)C(=O)c1cc(-c2cccn2C)n[nH]1` | -8.24% |
| 23 | `N[C@@H]1C[C@@H](N2CCOCC2)C12CCC2` | -15.4% |
| 24 | `COc1ccc(CN(C)C(=O)N2CCOCC2)cc1F` | 1.113% |
| 25 | `COc1cc(CN)ccc1Cl` | -58.13% |
| 26 | `O=C(CCc1ccc(Cl)s1)NCC(O)C1CCOCC1` (stereo not drawn) | -16.48% |
| 27 | `CCC(=O)N1CCCCC1C(=O)Nc1nccs1` (stereo not drawn) | -8.622% |
| 28 | `CCN(CCn1cc(Cl)cn1)[C@H]1COC[C@@H]1O` | 13.47% |
| 29 | `Cc1nnc2ccc(C(=O)NC(C)C)cn12` | -66.24% |
| 30 | `OC1(Cc2ccccc2F)CCNCC1` | -5.436% |
| 31 | `COC(=O)C(C)(N)c1cccnc1` (stereo not drawn) | -3.574% |
| 32 | `N#Cc1ccccc1CN1CCn2ccnc2C1` | 11.99% |
| 33 | `CC(C(=O)NC1CC1)N1CCC(N2CC=CC2)CC1` (stereo not drawn) | 0.3711% |
| 34 | `CCn1ccnc1C(O)c1ccccc1OC` (stereo not drawn) | -29.58% |
| 35 | `CNC(=O)c1sccc1N` | 10.5% |
| 36 | `COc1cc(F)c(S(=O)(=O)N(C)CC(N)=O)cc1OC` | -14.27% |
| 37 | `O=C(NC1CN(c2ccc(C(F)(F)F)cn2)C1)C1CC1` | -14.77% |
| 38 | `Cc1cnccc1NCCn1ccnc1-c1ncc[nH]1` | 2.701% |
| 39 | `CCOC(=O)CCNC(=O)Nc1ncccc1C` | -20.82% |
| 40 | `COCC1(CNC(=O)NCCC2(C)OCCO2)CCC1` | -31.76% |
| 41 | `COc1cc(C(=O)N(CCO)CC2CC2)ccc1C` | 3.835% |
| 42 | `COc1ccc(S(=O)(=O)Nc2cccc(CN)c2)cc1` | -10.32% |
| 43 | `CC(=O)NCCC(=O)NC1CCSc2c(F)cccc21` (stereo not drawn) | -9.367% |
| 44 | `CCn1cc(C(=O)NCc2ccc(CNC)cc2)cn1` | -1.69% |
| 45 | `CC(C)N(CCCNC(=O)Cc1cccs1)S(C)(=O)=O` | 0.2326% |
| 46 | `COc1cccc(OC)c1OCCN1CCN(C)CC1` | 0.3926% |
| 47 | `CN(C)c1ccc(CNS(C)(=O)=O)cc1` | 1.78% |
| 48 | `CN(C)C(=O)C(C)(C)NC(=O)c1cc(N(C)C)ccn1` | -11.94% |
| 49 | `Cc1cnc(CCNC(=O)NCC(O)C2CC2)s1` (stereo not drawn) | 6.68% |
| 50 | `CCC[C@H]1CN(S(=O)(=O)c2cnn(CCC)c2)C[C@@H]1N` | 28.46% |
| 51 | `CC(C)(C)c1noc(CO)n1` | 1.634% |
| 52 | `OC1(Cc2cccnc2)CCNCC1` | 2.407% |
| 53 | `COc1ccc(Cl)cc1S(=O)(=O)n1cncn1` | 4.312% |
| 54 | `CC(Sc1nnc(C2CC2)n1C1CC1)C(N)=O` (stereo not drawn) | -9.074% |
| 55 | `CCOCCC(=O)N[C@@H]1COCC[C@@H]1OCC(N)=O` | 17.72% |
| 56 | `COCCCn1c(SCCN(C)C)n[nH]c1=O` | 5.527% |
| 57 | `COCC(=O)N1CCC(c2nc(CSC)no2)CC1` | 17.1% |
| 58 | `CN(CC(=O)NC1CCCCNC1=O)Cc1ccco1` (stereo not drawn) | -19.47% |
| 59 | `O=C1CCCN1CCCNS(=O)(=O)c1ccc(Br)s1` | -1.058% |
| 60 | `NC1CCC(NC(=O)c2ccnc(C3CC3)n2)CC1` (stereo not drawn) | 6.384% |
| 61 | `CC(C)C(N)c1ncon1` (stereo not drawn) | -15.23% |
| 62 | `CC1CNC(=O)CCN1Cc1ccc(S(C)(=O)=O)cc1` (stereo not drawn) | -0.7264% |
| 63 | `CCC(NC(=O)CCc1cnccn1)c1ccncc1` (stereo not drawn) | -0.448% |
| 64 | `CC1CN(C(=O)c2cc[nH]n2)CCN1CC(C)(C)O` (stereo not drawn) | 4.265% |
| 65 | `CCn1ncnc1CN1CCCC2(C1)CN(C)C(=O)O2` (stereo not drawn) | -8.186% |
| 66 | `OCCOc1ccc(NCc2ccsc2)cn1` | -19% |
| 67 | `COCCNC(=O)C1CCN1S(=O)(=O)c1ccccc1` (stereo not drawn) | -12.37% |
| 68 | `Cc1ccc(CNC(=O)C2CCCCC(=O)N2)o1` (stereo not drawn) | 50.04% |
| 69 | `FCC1CNCCCO1` (stereo not drawn) | 13.26% |
| 70 | `COCCCn1cnn(C(C)(C)C)c1=O` | 17% |
| 71 | `CC(=O)Nc1ccc2ncccc2c1` | -0.5187% |
| 72 | `Cc1nc(C)c(CC(=O)NCC2CNCCO2)s1` (stereo not drawn) | 9.63% |
| 73 | `Cc1occc1C(=O)NCC(CO)Cc1cccs1` (stereo not drawn) | 1.059% |
| 74 | `Cc1ccc(CNC(=O)C2(C)CCCCC(=O)N2)o1` (stereo not drawn) | 14.66% |
| 75 | `Cc1csc(CN(C)C(=O)COCC2CCCCO2)n1` (stereo not drawn) | 3.62% |
| 76 | `Cc1csc(CCNC(=O)C(C)n2cccn2)n1` (stereo not drawn) | 0.265% |
| 77 | `CN1CC(C(=O)N2CCc3cc(Br)ccc32)CC1=O` (stereo not drawn) | 15.78% |
| 78 | `Cn1c(CCO)nc2ccccc21` | -3.264% |
| 79 | `CCN(Cc1nnc(C)o1)C1CNC[C@H]1O` (stereo partly drawn) | -7.373% |
| 80 | `NCCc1cnn(-c2ccccc2)c1` | -0.3953% |
| 81 | `CNC(=O)CCN(C)C(=O)C(C)Oc1ccccc1Br` (stereo not drawn) | 15.2% |
| 82 | `CNCc1csc(C(C)(C)O)n1` | 29.46% |
| 83 | `O=C(NC1CC1)c1ccccc1C(F)(F)F` | 38.72% |
| 84 | `CCCC(=O)n1nc(-c2ccccc2)nc1N` | 1.187% |
| 85 | `COc1ccc(CN(C)CC(N)=O)c(Br)c1OC` | 1.348% |
| 86 | `N#Cc1cccc(OCCn2cnc(C#N)n2)c1` | -19.15% |
| 87 | `CC(C)[C@]1(O)CN(Cc2c[nH]cn2)C[C@H]1C` | -3.346% |
| 88 | `Cc1cc(C(=O)NC(C)(C)CO)cc(C)c1F` | -2.983% |
| 89 | `CC(NC(=O)CCCn1cccc1)c1cnn(C)c1` (stereo not drawn) | 1.167% |
| 90 | `COc1ncccc1C(=O)N(C)c1ncccc1C#N` | -0.3711% |
| 91 | `CC(C)=CCO[C@@H]1COCC[C@H]1NS(=O)(=O)C1CC1` | 6.081% |

Once more, the final 7:

Compound	Percent Effect
COc1ccc(CN(C)CC(N)=O)c(Br)c1OC	1.348%
N#Cc1cccc(OCCn2cnc(C#N)n2)c1	-19.15%
CC(C)[C@]1(O)CN(Cc2c[nH]cn2)C[C@H]1C	-3.346%
Cc1cc(C(=O)NC(C)(C)CO)cc(C)c1F	-2.983%
CC(NC(=O)CCCn1cccc1)c1cnn(C)c1 (stereo not drawn)	1.167%
COc1ncccc1C(=O)N(C)c1ncccc1C#N	-0.3711%
CC(C)=CCO[C@@H]1COCC[C@H]1NS(=O)(=O)C1CC1	6.081%